Results are given in words; binding and its absence hold for the method and conditions named. Binding seen in cells or lysates may run through a third protein. Some results given as binding are weak or reduced against the parent protein; the word gives no strength. Where a sequence is shown, tags or fusion partners need not be part of it.
T1: mCherry-viperin (human) (UniProt Q8WXG1)
T1 sequence: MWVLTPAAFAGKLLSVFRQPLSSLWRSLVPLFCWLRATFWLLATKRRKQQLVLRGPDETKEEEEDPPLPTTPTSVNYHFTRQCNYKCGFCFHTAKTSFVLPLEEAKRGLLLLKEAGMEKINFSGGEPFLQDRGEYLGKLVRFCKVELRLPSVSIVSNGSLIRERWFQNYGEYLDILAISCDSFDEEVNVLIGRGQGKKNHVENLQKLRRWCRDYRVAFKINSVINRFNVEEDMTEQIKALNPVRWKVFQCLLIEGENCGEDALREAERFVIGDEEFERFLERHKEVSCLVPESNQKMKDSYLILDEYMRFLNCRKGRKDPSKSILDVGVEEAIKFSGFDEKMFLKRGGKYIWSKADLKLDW

T2: viperin-FLAG (human) (UniProt Q8WXG1)
T2 sequence: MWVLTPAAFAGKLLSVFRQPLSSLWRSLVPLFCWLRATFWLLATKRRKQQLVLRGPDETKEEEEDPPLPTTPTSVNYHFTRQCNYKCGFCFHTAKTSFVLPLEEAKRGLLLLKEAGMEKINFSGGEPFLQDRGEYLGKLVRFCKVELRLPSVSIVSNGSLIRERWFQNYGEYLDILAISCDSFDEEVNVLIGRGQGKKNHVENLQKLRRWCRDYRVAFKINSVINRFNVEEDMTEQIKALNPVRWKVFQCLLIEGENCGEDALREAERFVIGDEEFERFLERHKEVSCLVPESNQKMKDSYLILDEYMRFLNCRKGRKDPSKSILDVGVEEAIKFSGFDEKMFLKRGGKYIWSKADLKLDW


Legend:
mCherry-viperin (human) = molecular target: T1, mCherry-viperin (human); experiment: co-IP; co-transfected 293FT cells; NP-40 lysis buffer (1% NP-40, 150 mM NaCl, 50 mM Tris pH 8.0); IP with rabbit anti-mCherry and Protein A/G agarose at 4°C; blot with anti-Myc
viperin-FLAG (human) = molecular target: T2, viperin-FLAG (human); experiment: proximity ligation; in situ, co-transfected Huh-7 cells; mouse anti-FLAG (viperin) and rabbit anti-Myc (Pex19); control: mouse isotype control with rabbit anti-Myc

Row | Binder | binding (mCherry-viperin (human)) | binding (viperin-FLAG (human))
1 | Pex19-Myc (pCMV6-PEX19-Myc/FLAG), in 293FT cells (protein, UniProt P40855 1-299) MAAAEEGCSVGAEADRELEELLESALDDFDKAKPSPAPPSTTTAPDASGPQKRSPGDTAKDALFASQEKFFQELFDSELASQATAEFEKAMKELAEEEPHLVEQFQKLSEAAGRVGSDMTSQQEFTSCLKETLSGLAKNATDLQNSSMSEEELTKAMEGLGMDEGDGEGNILPIMQSIMQNLLSKDVLYPSLKEITEKYPEWLQSHRESLPPEQFEKYQEQHSVMCKICEQFEAETPTDSETTQKARFEMVLDLMQQLQDLGHPPKELAGEMPPGLNFDLDALNLSGPPGASGEQCLIM | binds | 
2 | PEX19-Myc (pCMV6-PEX19-Myc/FLAG), in Huh-7 cells (protein, UniProt P40855 1-299) MAAAEEGCSVGAEADRELEELLESALDDFDKAKPSPAPPSTTTAPDASGPQKRSPGDTAKDALFASQEKFFQELFDSELASQATAEFEKAMKELAEEEPHLVEQFQKLSEAAGRVGSDMTSQQEFTSCLKETLSGLAKNATDLQNSSMSEEELTKAMEGLGMDEGDGEGNILPIMQSIMQNLLSKDVLYPSLKEITEKYPEWLQSHRESLPPEQFEKYQEQHSVMCKICEQFEAETPTDSETTQKARFEMVLDLMQQLQDLGHPPKELAGEMPPGLNFDLDALNLSGPPGASGEQCLIM |  | binds

From publication PMC8200297
